# Assay results from PubChem BioAssay AID485298 (National Center for Advancing Translational Sciences (NCATS), 2010).
# In all, about 320,000 compounds went through this assay and about 740 (0.23%) were called active. Inconclusive results, whose numbers are uncertain, are shown with a selection of clear calls. Calls follow the shape of the dose curve; as a rule, active = well fitted activation curve with a large enough effect; inconclusive = small, poorly fitted or top-dose-only effect; inactive = no such curve, though single readings can be large or run the other way. Potencies beside an inconclusive call are fits to weak or partial responses and may not hold up.
# Assay: qHTS Assay for Small Molecule Inhibitors of Mitochondrial Division or Activators of Mitochondrial Fusion; also: nearly all actives have a fitted effect of over 45% in size;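 as to growth rescue (activation): temperature-sensitive fusion mutants such as fzo1-1 at 37 °C on non-fermentable ethanol glycerol medium; % of control where 0% means no effect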
# Conditions: S. cerevisiae fusion-defective mutant growth rescue, CellTiterGlo 48 h; growth rescue (activation): at 46.1 µM (top of the series) unless noted
# In short: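 Yeast fusion mutant, YPEG (non-fermentable carbon), compound, 48 h at 37C non-permissive; CellTiterGlo added, 10 min RT, luminescence read. Rescued growth = division inhibition.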
# Potency is read from the fitted curve at half-maximal effect.
SMILES,growth rescue (activation),Potency
COc1ccc(-c2cnnc(N/N=C/c3ccc(OC)c(OC)c3)n2)cc1,inactive: -1.8%,
CN(CC(=O)Nc1ccc(S(=O)(=O)N2CCCC2)cc1)Cc1ccc(Cl)cc1Cl,,"inconclusive: 35.5 µM [activator, single point]"
CC(C)Nc1ccc(Nc2ccnc3cc4ccccc4cc23)cc1,inactive: 7.47%,
CC(NC(=O)C1CCCN1S(=O)(=O)c1ccccc1)c1ccccc1 (stereo not drawn),,"inconclusive: 6.31 µM [activator, single point]"
O=C(CCC1CCCCC1)NNC(=O)NC12CC3CC(CC(C3)C1)C2,,"inconclusive: 35.5 µM [activator, single point]"
O=C(CSc1nc2ccccc2[nH]1)N1c2ccccc2Sc2ccccc21,,"inconclusive: 35.5 µM [activator, single point]"
Nc1cc(Cl)ccc1N1C(=O)CCC1=O,,"inconclusive: 31.6 µM [activator, single point]"
Cc1c(Cc2ccccc2)sc(/N=C/c2c(O)ccc3ccccc23)c1C(N)=O,,"inconclusive: 22.4 µM [activator, single point]"
CC(=O)c1cccc(NC(=S)N2CCC(Cc3ccccc3)CC2)c1,,"inconclusive: 22.4 µM [activator, single point]"
C/C(=N\Nc1nc2ccccc2[nH]1)c1ccc(Cl)s1,,"inconclusive: 11.2 µM [activator, single point]"
O=c1c2ccccc2nc2n1CCCN2,,"inconclusive: 20 µM [activator, partial curve]"
Nc1nnn(CC(=O)N/N=C/c2ccc(O)cc2)n1,,"inconclusive: 5.62 µM [activator, single point]"
CC(=O)c1ccc(NC(=O)/C(=C\c2ccc(F)cc2)NC(=O)c2ccco2)cc1,inactive: 2.48%,
CCOC(=O)C1CCN(c2ncnc3c2cnn3-c2ccc(OC)cc2)CC1,,"inconclusive: 0.631 µM [activator, partial curve, poor fit]"
CCOC(=O)C1=C(C)N=C2c3ccccc3C(=O)C2C1c1ccc(Br)cc1 (stereo not drawn),,"inconclusive: 10 µM [activator, partial curve]"
COc1ccc(-c2ccc(-c3nc4ccc(C)cn4c3NC3CCCCC3)cc2OC)cc1,,"inconclusive: 15.8 µM [activator, single point]"
CCCn1nc(C(=O)NC2CCCc3ccccc32)c2ccccc2c1=O (stereo not drawn),,"inconclusive: 17.8 µM [activator, partial curve]"
Cc1cccc(NC(=O)C2C(c3ccccc3)C2(Cl)Cl)c1 (stereo not drawn),,"inconclusive: 35.5 µM [activator, single point]"
CC(C)COc1ccc(C(=O)CCN2CCCCC2)cc1,inactive: -18.4%,
Cc1cccc(-c2ocnc2C(=O)Nc2ccccc2NC(=O)c2ccccn2)c1,,"inconclusive: 35.5 µM [activator, single point]"
COc1ccc(S(=O)(=O)N(C)C)cc1NS(=O)(=O)c1ccc(F)c(F)c1F,inactive: 2.67%,
NC(=O)c1c(NC(=O)c2cccnc2Cl)sc2c1CCCC2,,"inconclusive: 11.2 µM [activator, partial curve]"

# Looked up above.
# In Potency, `Cc1cccc(-c2ocnc2C(=O)Nc2ccccc2NC(=O)c2ccccn2)c1` is entered as inconclusive: 35.5 µM [activator, single point]
# In Potency, `COc1ccc(-c2ccc(-c3nc4ccc(C)cn4c3NC3CCCCC3)cc2OC)cc1` is entered as inconclusive: 15.8 µM [activator, single point]

# Next part:

SMILES,growth rescue (activation),Potency
CNC(=S)N1N=C(c2ccc(C)cc2)CC1c1cc(OC)ccc1OC (stereo not drawn),,"inconclusive: 22.4 µM [activator, partial curve]"
O=c1c2ccccc2c(-c2cccc(C(F)(F)F)c2)nn1-c1ccccc1,,"inconclusive: 12.6 µM [activator, partial curve]"
O=C(N/N=C/c1cccs1)c1cc(-c2ccc3ccccc3c2)n[nH]1,,"inconclusive: 15.8 µM [activator, single point]"
O=C(O)CCCCn1c(SCc2ccccc2Cl)nc2ccsc2c1=O,,"inconclusive: 31.6 µM [activator, single point]"
CC1CC(C)CN(C(=O)C2CCCN(S(=O)(=O)c3cccc4nonc34)C2)C1 (stereo not drawn),,"inconclusive: 11.2 µM [activator, partial curve]"
O=C(CSCc1ccccc1)N1CCN(c2ccc(F)cc2)CC1,inactive: 4.37%,
CC(C)OCCCn1c(=S)[nH]c2ccc(N3CCOCC3)cc2c1=O,,"inconclusive: 6.31 µM [activator, single point]"
Cn1c(SCC(=O)N2CCCc3ccccc32)nc2ccccc2c1=O,,"inconclusive: 11.2 µM [activator, partial curve]"
CC(C)C(=O)c1c(C(C)C)nn2ccccc12,,"inconclusive: 29.1 µM [activator, single point]"
COc1ccc(C2=CC(=O)CC(c3ccc(OC)cc3)C2)cc1 (stereo not drawn),,"inconclusive: 17.8 µM [activator, partial curve]"
Cc1ccc(-c2onc3ccc(C(=O)O)cc23)cc1,,"inconclusive: 35.5 µM [activator, single point]"
CC1(C)Cc2cccc(OCC(=O)N3CCN(c4cccc(Cl)c4)CC3)c2O1,,"inconclusive: 20 µM [activator, single point]"
CCOC(=O)c1sc(NC(=O)CCN2CCN(C)CC2)c(C(=O)OCC)c1C,inactive: -3.26%,
COC(=O)c1ccc(OC(=O)C2CC(=O)N(c3cccc(C)c3)C2)cc1 (stereo not drawn),,"inconclusive: 6.31 µM [activator, single point]"
Cc1cccc(-c2nsc(SCC(=O)NCc3ccc4c(c3)OCO4)n2)c1,,"inconclusive: 10 µM [activator, partial curve]"
Cc1onc(-c2ccccc2)c1C(=O)N/N=C/c1cc(Br)c(Br)o1,,"inconclusive: 22.4 µM [activator, single point]"
Cc1ccc(C)c(NC(=O)c2ccc3c(c2)N(Cc2ccc(F)cc2)C(=O)CS3=O)c1 (stereo not drawn),,"inconclusive: 12.6 µM [activator, partial curve]"
C=C(C)Cn1c(N2CC(C)CC(C)C2)nc2c1c(=O)[nH]c(=O)n2C (stereo not drawn),,active: 25.1 µM
COc1cc(OC)c(C2Nc3ccccc3NC3=C2C(=O)CC(C)(C)C3)cc1OC (stereo not drawn),,"inconclusive: 5.01 µM [activator, single point]"
Cc1ccc(C)c(NC(=S)NCCN(C2CCCCC2)C2CCCC2)c1,,"inconclusive: 35.5 µM [activator, single point]"
CCc1cc2cccc(C)c2nc1SCC(=O)Nc1nonc1C,,"inconclusive: 0.562 µM [activator, full curve]"
